Measured values from publication PMC7132099.
These are yes or no findings as the source states them, for the method shown. For some assays here: In cells and extracts the contact can be indirect. Some entries that bind do so weakly or less than the wild type.

The chains behind the UniProt entries cited, without tags or fusion partners.
UniProt Q80Y73: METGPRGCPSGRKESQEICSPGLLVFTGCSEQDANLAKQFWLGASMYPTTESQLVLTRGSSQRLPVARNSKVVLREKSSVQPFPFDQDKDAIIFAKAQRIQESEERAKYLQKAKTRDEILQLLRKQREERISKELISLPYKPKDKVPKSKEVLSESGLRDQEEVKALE

B1: enolase 4 (ENO4) (enzyme, UniProt Q8C042 1-619)
chain: MGDEDGGRRGGITRDLQKLKQQAMAYYQENDVPRKLEDLLNSTFYLQPADVYGHLKANYFSKLAKPPSICKIVGKTILDGLGLPTLQVEISCTIQNFPKYICAVAIPTHFEVVENALPEALDAEDSERAQAVNTAVQWINQSITEELWGLVPSNQAEVDHRLRTFFEHKVQEDKERKELEKSQEELVPAPPPVTLPPPPPPPPPPPSKKKGQKAGRRDTLLEKPVSPPEPPEPVLHGSMAIGAVSLAVAKASATLASDPLYLTLASLKHDQEQPSTFSMPLLMGSVLSCGKSSPGKLHLMKEVICIPSPGLTAKQSVELLLEIQKQVNRAMETLPPPKQETKKGHNGSKRAQPPITGKVSHLGCLTINYDAIEQPLLLLQGICSNLGLELGVNFHLAINCAGHELMDYSKGKYEVMVGTHKSAAEMVELYVDLINKYPSIIALIDPFRKEDAEQWDSLYAALASRCYLIAGAASGSVSKLLECRNISTLKSHGLIIKHTNQTTMSDLVEITHLINGKKLLAVFGSTDSESSDDSLVDLAVGFGARFIKLGGLSRGERMTKYNRLLAIEEELIQRGVWGFSEEHNFSFFQEDATATMAEETLGLLDSIFPTEVIEESAKT

How the values were obtained:
[1] = target: recombinant HOATZ-FLAG (mouse) (UniProt Q80Y73); experiment: sucrose density gradient centrifugation; whole-cell lysate of 293T cells overexpressing HOATZ-FLAG fractionated on a sucrose gradient; western blot of the fractions
[2] = target: HOATZ (Hoatzin; product of 4833427G06Rik) (mouse (endogenous in testis)) (UniProt Q80Y73); experiment: co-IP; testis lysates immunoprecipitated with the anti-HOATZ antibody; eluates blotted for ENO4 and HOATZ

Molecule | binding [1] | binding [2]
recombinant HOATZ-FLAG (from UniProt Q80Y73 1-168) | no binding | –
B1 | – | binds
